Results are given in words; binding and its absence hold for the method and conditions named. Binding seen in cells or lysates may run through a third protein. For some of these results: Binding can be weak; no strength is given.
Assays:
Experiment in all cases: co-IP; Flag-tagged WT or mutant PRMT9 immunoprecipitated from lysates of transfected cells (anti-Flag M2 magnetic beads in Fig. 2e), partners detected by western blot; co-IP buffer 50 mM Tris-HCl pH 7.5, 150 mM NaCl, 5 mM EDTA, 15 mM MgCl2, 0.1% NP-40
[1] = target: Flag-tagged G189R-mutant PRMT9 (human) (UniProt Q6P2P2)
[2] = target: Flag-tagged catalytic-inactive PRMT9 4A mutant (VLDI mutated to AAAA) (human) (UniProt Q6P2P2)
[3] = target: Flag-tagged wild type PRMT9 (protein arginine methyltransferase 9) (human) (UniProt Q6P2P2)

Sequences of proteins named here, by UniProt entry; tags and fusion partners are left off. A change or cut given only in a name is not applied to a line headed by its entry.
UniProt Q6P2P2: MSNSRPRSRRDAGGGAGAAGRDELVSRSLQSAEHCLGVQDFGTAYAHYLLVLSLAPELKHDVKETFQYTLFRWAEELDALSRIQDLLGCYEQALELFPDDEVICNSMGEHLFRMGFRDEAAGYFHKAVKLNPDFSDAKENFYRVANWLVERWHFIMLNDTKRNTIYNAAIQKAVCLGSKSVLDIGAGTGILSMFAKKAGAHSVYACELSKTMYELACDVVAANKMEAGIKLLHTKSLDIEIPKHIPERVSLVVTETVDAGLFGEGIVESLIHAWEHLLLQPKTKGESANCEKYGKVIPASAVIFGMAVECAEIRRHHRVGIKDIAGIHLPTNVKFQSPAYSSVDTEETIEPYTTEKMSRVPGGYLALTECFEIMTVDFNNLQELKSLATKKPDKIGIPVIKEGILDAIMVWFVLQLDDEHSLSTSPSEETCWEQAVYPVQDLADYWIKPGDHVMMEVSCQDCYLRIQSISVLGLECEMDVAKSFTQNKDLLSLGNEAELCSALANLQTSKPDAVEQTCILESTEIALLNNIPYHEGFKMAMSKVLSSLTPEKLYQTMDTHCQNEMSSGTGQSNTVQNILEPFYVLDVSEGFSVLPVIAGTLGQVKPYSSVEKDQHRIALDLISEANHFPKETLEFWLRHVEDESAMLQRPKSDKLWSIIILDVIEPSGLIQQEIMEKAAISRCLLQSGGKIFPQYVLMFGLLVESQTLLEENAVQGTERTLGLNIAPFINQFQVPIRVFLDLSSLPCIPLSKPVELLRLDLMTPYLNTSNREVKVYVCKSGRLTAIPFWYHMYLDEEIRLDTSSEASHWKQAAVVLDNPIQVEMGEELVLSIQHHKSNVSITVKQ
UniProt Q13435: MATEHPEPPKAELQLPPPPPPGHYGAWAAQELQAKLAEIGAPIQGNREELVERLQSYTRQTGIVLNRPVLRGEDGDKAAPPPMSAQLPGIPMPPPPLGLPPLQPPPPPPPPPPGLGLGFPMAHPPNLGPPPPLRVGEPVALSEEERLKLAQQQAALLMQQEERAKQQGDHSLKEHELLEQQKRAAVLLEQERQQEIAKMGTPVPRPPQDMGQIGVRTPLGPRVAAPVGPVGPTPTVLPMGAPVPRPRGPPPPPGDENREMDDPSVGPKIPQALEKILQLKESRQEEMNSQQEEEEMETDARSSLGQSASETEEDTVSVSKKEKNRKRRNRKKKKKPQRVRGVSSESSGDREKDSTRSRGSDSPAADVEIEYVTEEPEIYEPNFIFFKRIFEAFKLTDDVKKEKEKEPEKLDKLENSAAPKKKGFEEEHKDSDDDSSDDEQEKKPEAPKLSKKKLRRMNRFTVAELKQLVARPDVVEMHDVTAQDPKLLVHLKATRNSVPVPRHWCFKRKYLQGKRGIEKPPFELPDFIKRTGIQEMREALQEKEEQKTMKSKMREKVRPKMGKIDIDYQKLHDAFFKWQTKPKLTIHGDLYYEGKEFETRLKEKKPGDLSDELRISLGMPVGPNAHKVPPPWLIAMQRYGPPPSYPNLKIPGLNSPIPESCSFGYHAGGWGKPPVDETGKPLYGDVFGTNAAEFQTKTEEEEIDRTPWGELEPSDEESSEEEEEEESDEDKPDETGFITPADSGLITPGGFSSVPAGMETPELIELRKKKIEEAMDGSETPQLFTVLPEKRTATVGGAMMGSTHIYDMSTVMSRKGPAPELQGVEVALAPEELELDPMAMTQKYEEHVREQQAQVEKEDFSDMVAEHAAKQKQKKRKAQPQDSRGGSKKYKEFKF
UniProt Q15386: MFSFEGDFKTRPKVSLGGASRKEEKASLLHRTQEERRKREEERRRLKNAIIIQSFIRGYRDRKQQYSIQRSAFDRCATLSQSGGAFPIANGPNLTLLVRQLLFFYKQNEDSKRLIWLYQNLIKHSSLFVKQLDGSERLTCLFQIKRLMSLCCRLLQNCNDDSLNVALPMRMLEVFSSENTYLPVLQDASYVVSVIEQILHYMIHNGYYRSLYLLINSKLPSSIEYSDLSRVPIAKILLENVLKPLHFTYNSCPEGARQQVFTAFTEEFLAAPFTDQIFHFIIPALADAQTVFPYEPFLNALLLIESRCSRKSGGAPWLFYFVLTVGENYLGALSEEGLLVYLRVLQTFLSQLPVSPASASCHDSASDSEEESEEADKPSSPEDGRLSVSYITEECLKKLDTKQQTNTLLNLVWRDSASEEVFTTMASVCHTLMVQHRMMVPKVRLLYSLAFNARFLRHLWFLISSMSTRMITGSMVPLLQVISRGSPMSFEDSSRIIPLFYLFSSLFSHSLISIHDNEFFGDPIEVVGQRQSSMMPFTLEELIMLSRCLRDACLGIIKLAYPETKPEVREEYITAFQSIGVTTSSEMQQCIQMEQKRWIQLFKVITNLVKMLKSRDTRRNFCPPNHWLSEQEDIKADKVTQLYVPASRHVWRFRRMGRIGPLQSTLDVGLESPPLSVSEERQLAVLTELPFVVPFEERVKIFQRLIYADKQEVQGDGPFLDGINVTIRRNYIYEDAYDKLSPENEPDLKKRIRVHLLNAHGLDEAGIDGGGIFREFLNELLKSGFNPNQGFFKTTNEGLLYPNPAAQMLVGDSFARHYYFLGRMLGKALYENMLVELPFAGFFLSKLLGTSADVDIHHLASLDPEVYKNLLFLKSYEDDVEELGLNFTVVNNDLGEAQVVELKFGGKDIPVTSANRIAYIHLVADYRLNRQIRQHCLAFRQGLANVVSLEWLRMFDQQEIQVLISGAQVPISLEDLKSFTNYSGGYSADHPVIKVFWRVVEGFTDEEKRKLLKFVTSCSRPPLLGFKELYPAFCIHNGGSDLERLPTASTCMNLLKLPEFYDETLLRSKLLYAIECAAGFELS

Substance	binding [1]	binding [2]	binding [3]
splicing factor 3B subunit 2 (SF3B2), endogenous (from UniProt Q13435 1-895)	no binding	no binding	binds
ubiquitin-protein ligase E3C (UBE3C) (from UniProt Q15386 1-1083) (enzyme)	binds	–	binds
valosin-containing protein (VCP)/p97 (from UniProt P55072 1-806)	binds	–	binds

Source: PMC10984984, “Loss-of-function mutation in PRMT9 causes abnormal synapse development by dysregulation of RNA alternative splicing”
